This passage reports survivor count and T/C results from PubChem BioAssay AID298 (DTP/NCI, 2004).

This experiment concerns MX-1 breast xenograft, intrarenal, nude mice, tumor weight. Nature of the experiment: NCI In Vivo Anticancer Drug Screen. Data for tumor model Human Mammary Carcinoma MX-1 Xenograft (intrarenal inoculation) in NU/NU BALB/C (nude) mice. The conditions noted are these: T/C endpoint: mean tumor weight change, higher T/C = larger tumour; for T/C: evaluated on day 11. A digest of the protocol:
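T/C readout: treated-group measurement over vehicle-control measurement, using tumor size or survival in tumor-bearing mice.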

[1] abbreviates: dose: 600.0 mg/kg/injection, schedule: Q04DX003 (ip), vehicle: saline with Tween-80.
[2] abbreviates: dose: 1200.0 mg/kg/injection, schedule: Q04DX003 (ip), vehicle: saline with Tween-80.

SMILES strings stand for the structures. The list does not hold the whole screen: it is rich in T/C values a quarter to a half above the control, in often repeated tests (any T/C) and in doses without a T/C. Other doses and runs of a compound stand elsewhere. T/C gives the treated animals as a percentage of the vehicle group. Schedules are NCI's codes, read here as Q, the interval in days (D) or hours (H), X, the number of doses. Some entries give survivors of the animals treated and no T/C: the source holds a T/C of zero for them, seemingly a mark for toxic or unscored doses. Survivors were counted at the toxicity check, usually on the fifth day, unless a day is given; later deaths do not show.

As to `COc1cccc2c1C(=N)c1c(O)c3c(c(O)c1C2=O)C[C@@](O)(C(C)=O)C[C@@H]3OC1CC(N)C(O)C(C)O1` (some centres not stated), under “dose: 32.0 mg/kg/injection, schedule: Q01DX010 (sc), vehicle: water”, the survivor count is reported as 3 of 6 on day 11. With `CC1(C)COCN1COCCOCN1COCC1(C)C`, the T/C (dose: 100.0 mg/kg/injection, schedule: Q04DX003 (sc), vehicle: saline) was 134 % of control. Further, the survivor count (dose: 800.0 mg/kg/injection, schedule: Q04DX003 (sc), vehicle: saline) is 0 of 6 on day 11. Turning to `O=C[C@@H](CO)O[C@H](C=O)n1cnc2c(=O)[nH]cnc21`, for the setting “dose: 800.0 mg/kg/injection, schedule: Q04DX003 (sc), vehicle: saline with Tween-80”, the survivor count is reported as 0 of 3 on day 11. `CS(=O)(=O)OCCN(CCOS(C)(=O)=O)c1ccc(C=Nc2ccc(-c3csc(COc4ccccc4)n3)cc2)cc1`: the survivor count (dose: 400.0 mg/kg/injection, schedule: Q01DX010 (sc), vehicle: Klucel (hydroxypropylcellulose) (HPC)) is on record as 0 of 3 on day 11. In the case of `NC(=O)SCC(N)C(=O)O` (configuration not stated), the survivor count runs as follows: (dose: 1100.0 mg/kg/injection, schedule: Q04DX003 (sc), vehicle: saline) 0 of 6 on day 11; (dose: 1200.0 mg/kg/injection, schedule: Q04DX003 (ip), vehicle: saline) 1 of 6 on day 11; (dose: 1350.0 mg/kg/injection, schedule: Q04DX003 (sc), vehicle: saline) 0 of 6 on day 11; (dose: 2400.0 mg/kg/injection, schedule: Q04DX003 (ip), vehicle: saline) 0 of 6 on day 11. For the compound `COc1cccc2c1C(CO)N1C(C#N)C3CC(C(=O)O)C(C1C2)N3C` (configuration not stated), the survivor count (dose: 50.0 mg/kg/injection, schedule: Q01DX010 (ip), vehicle: saline) is on record as 1 of 5 on day 11.

With `C[C@]12CC[C@H]3[C@@H](CCC4=C[C@@H](OC5OCC(OC6OC(CO)C(O)C(O)C6O)C(O)C5O)CC[C@@]43C=O)[C@@]1(O)CCC2C1=CC(=O)OC1` (some centres not stated), the T/C (dose: 30.0 mg/kg/injection, schedule: Q04DX003 (sc), vehicle: Klucel (hydroxypropylcellulose) (HPC)) was 136 % of control. The survivor count by setting is: (dose: 60.0 mg/kg/injection, schedule: Q04DX003 (sc), vehicle: Klucel (hydroxypropylcellulose) (HPC)) 2 of 6 on day 11; (dose: 120.0 mg/kg/injection, schedule: Q04DX003 (sc), vehicle: Klucel (hydroxypropylcellulose) (HPC)) 1 of 6 on day 11. For the compound `O=C1C2CC(Cl)C(SSC3CC4C(=O)N(SC(Cl)(Cl)C(Cl)Cl)C(=O)C4CC3Cl)CC2C(=O)N1SC(Cl)(Cl)C(Cl)Cl` (configuration not stated), the survivor count (dose: 300.0 mg/kg/injection, schedule: Q04DX003 (ip), vehicle: saline with Tween-80) is given as 0 of 6 on day 11 and the survivor count under setting [1] is 0 of 6 on day 11. With `CC(=O)c1c(O)c(C)c(O)c2c1OC1=CC(=O)C(C(C)=O)C(=O)C12C` (configuration not stated), for the setting “dose: 100.0 mg/kg/injection, schedule: Q01DX010 (sc), vehicle: sodium bicarbonate”, the T/C is 128 % of control. The survivor count (dose: 800.0 mg/kg/injection, schedule: Q01DX010 (sc), vehicle: sodium bicarbonate) is 0 of 3 on day 11. Regarding `CN=C(N)N/N=C(\C)c1ccc2sc3ccc(/C(C)=N/NC(N)=NC)cc3c2c1`, the survivor count is 0 of 6 on day 11 under setting [1] and 0 of 6 on day 11 under setting [2].

For the compound `CNC(=S)SC1=NS(=O)(=O)c2ccccc2N1`, the T/C (dose: 100.0 mg/kg/injection, schedule: Q04DX003 (ip), vehicle: Klucel (hydroxypropylcellulose) (HPC)) was 149 % of control. Further, the survivor count (dose: 800.0 mg/kg/injection, schedule: Q04DX003 (ip), vehicle: Klucel (hydroxypropylcellulose) (HPC)) was 0 of 6 on day 11. Consider `CO[C@@H]1C2=CC=CC=C[C@H]2n2c(=O)n(C)c(=O)n21`, for which the survivor count (dose: 600.0 mg/kg/injection, schedule: Q04DX003 (ip), vehicle: other) is reported as 3 of 6 on day 11. As for `CC(=O)O[C@H]1C(=O)[C@@]2(C)C(C(OC(=O)c3ccccc3)[C@]3(O)C[C@H](OC(=O)C(OC(=O)CN(C)C)C(NC(=O)c4ccccc4)c4ccccc4)C(C)=C1C3(C)C)C1(OC(C)=O)COC1C[C@@H]2O` (some centres not stated), where the note is “dose: 30.0 mg/kg/injection, schedule: Q01DX009 (ip), vehicle: water”, the survivor count is recorded as 1 of 6 on day 11.

For the compound `C1CCC2C[N-]CCC2C1.C1CCC2C[N-]CCC2C1.C1CCC2C[N-]CCC2C1.C1CCC2C[N-]CCC2C1.[Cl][Rh][Cl]` (configuration not stated), the T/C (dose: 288.0 mg/kg/injection, schedule: Q04DX003 (sc), vehicle: saline with Tween-80) is 125 % of control. As for `COc1cc(C2=NCCc3cc4c(cc32)OCO4)cc(OC)c1OC`, the survivor count is listed as 1 of 6 on day 11 (dose: 300.0 mg/kg/injection, schedule: Q04DX003 (ip), vehicle: saline + alcohol) and 0 of 6 on day 11 (dose: 600.0 mg/kg/injection, schedule: Q04DX003 (ip), vehicle: saline + alcohol). Consider `CCCCNP1(NCCCC)=NP(NCCCC)(NCCCC)=NP(NCCCC)(NCCCC)=NP(NCCCC)(NCCCC)=N1`, for which the survivor count by setting is: under setting [1], 0 of 6 on day 11; under setting [2], 0 of 6 on day 11.

On to `CC(C)CC(=O)NC(C(=O)NC(C(=O)NC(CC(C)C)C(O)CC(=O)NC(C)C(=O)NC(CC(C)C)C(O)CC(=O)O)C(C)C)C(C)C` (configuration not stated), for which the survivor count by setting is: (dose: 300.0 mg/kg/injection, schedule: Q04DX003 (ip), vehicle: Klucel (hydroxypropylcellulose) (HPC)) 3 of 6 on day 11; (dose: 600.0 mg/kg/injection, schedule: Q04DX003 (ip), vehicle: Klucel (hydroxypropylcellulose) (HPC)) 0 of 6 on day 11; (dose: 1200.0 mg/kg/injection, schedule: Q04DX002 (ip), vehicle: Klucel (hydroxypropylcellulose) (HPC)) 0 of 6 on day 11; (dose: 1200.0 mg/kg/injection, schedule: Q04DX003 (ip), vehicle: Klucel (hydroxypropylcellulose) (HPC)) 0 of 6 on day 11.
